Assay results as given in the supplement of paper PMC4604168 (melanoma cell lines).
The list shows a part of the results. Many values rest on one well or one pass, so single values are uncertain.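 Cells were imaged in 1,536-well plates, and nuclei stained with an antibody against cleaved PARP were counted against all DNA-stained nuclei to give the apoptosis fraction. Screening doses were chosen to leave most cells alive, and resting and induced cleaved-PARP levels differ strongly between cell lines.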

What was measured:
Assay in all cases: cleaved PARP positive nuclei fraction relative to DMSO control; melanoma cells; higher = more apoptosis
Conditions in all cases: library dose: low library concentration; 72 h
MZ2-MEL = test system: MZ2-MEL
MeWo = test system: MeWo
RPMI7951 = test system: RPMI7951
RVH-421 = test system: RVH-421
SkMel28 = test system: SkMel28
SkMel30 = test system: SkMel30
SkMel5 = test system: SkMel5
UACC257 = test system: UACC257
UACC62 = test system: UACC62
WM115 = test system: WM115
WM1716 = test system: WM1716
WM1745 = test system: WM1745
WM3526 = test system: WM3526
WM3619 = test system: WM3619
WM451Lu = test system: WM451Lu

## C#Cc1cccc(Nc2ncnc3cc(OCCOC)c(OCCOC)cc23)c1 [erlotinib] + COc1cc2ncnc(Nc3ccc(Oc4ccccc4)cc3)c2cc1OC [SrcI1] (first compound 0.8 µM, partner dose 2 µM)
MZ2-MEL
  cleaved PARP positive nuclei fraction: 40.8%
MeWo
  cleaved PARP positive nuclei fraction: 59.9%
RPMI7951
  cleaved PARP positive nuclei fraction: 36.6%
RVH-421
  cleaved PARP positive nuclei fraction: 51.3%
SkMel28
  cleaved PARP positive nuclei fraction: 71.1%
SkMel30
  cleaved PARP positive nuclei fraction: 16.1%
SkMel5
  cleaved PARP positive nuclei fraction: 95.8%
UACC257
  cleaved PARP positive nuclei fraction: 136%
UACC62
  cleaved PARP positive nuclei fraction: 153%
WM115
  cleaved PARP positive nuclei fraction: 176%
WM1716
  cleaved PARP positive nuclei fraction: 63%
WM1745
  cleaved PARP positive nuclei fraction: 142%
WM3526
  cleaved PARP positive nuclei fraction: 80.1%
WM3619
  cleaved PARP positive nuclei fraction: 82.8%
WM451Lu
  cleaved PARP positive nuclei fraction: 145%

## Cc1cc(N2CCOCC2)cc2[nH]c(-c3c(NC[C@@H](O)c4cccc(Cl)c4)cc[nH]c3=O)nc12 + O=C1NC(=O)/C(=C/c2ccc(-c3ccc(F)cc3O)o2)S1 [AS252424] (first compound 0.2 µM, partner dose 1 µM)
MZ2-MEL
  cleaved PARP positive nuclei fraction: 136%
MeWo
  cleaved PARP positive nuclei fraction: 47.8%
RPMI7951
  cleaved PARP positive nuclei fraction: 81.4%
RVH-421
  cleaved PARP positive nuclei fraction: 55.2%
SkMel28
  cleaved PARP positive nuclei fraction: 111%
SkMel30
  cleaved PARP positive nuclei fraction: 25%
SkMel5
  cleaved PARP positive nuclei fraction: 57.3%
UACC257
  cleaved PARP positive nuclei fraction: 109%
UACC62
  cleaved PARP positive nuclei fraction: 47.6%
WM115
  cleaved PARP positive nuclei fraction: 83.7%
WM1716
  cleaved PARP positive nuclei fraction: 49.3%
WM1745
  cleaved PARP positive nuclei fraction: 133%
WM3526
  cleaved PARP positive nuclei fraction: 205%
WM3619
  cleaved PARP positive nuclei fraction: 85.2%
WM451Lu
  cleaved PARP positive nuclei fraction: 101%

## C=CCn1c(=O)c2cnc(Nc3ccc(N4CCN(C)CC4)cc3)nc2n1-c1cccc(C(C)(C)O)n1 + O=S(=O)(c1ccccc1)N(CC(F)(F)F)c1ccc(C(O)(C(F)(F)F)C(F)(F)F)cc1 [T0901317] (first compound 0.02 µM, partner dose 1.4 µM)
MZ2-MEL
  cleaved PARP positive nuclei fraction: 76.4%
MeWo
  cleaved PARP positive nuclei fraction: 69.5%
RPMI7951
  cleaved PARP positive nuclei fraction: 71.7%
RVH-421
  cleaved PARP positive nuclei fraction: 101%
SkMel28
  cleaved PARP positive nuclei fraction: 126%
SkMel30
  cleaved PARP positive nuclei fraction: 118%
SkMel5
  cleaved PARP positive nuclei fraction: 283%
UACC257
  cleaved PARP positive nuclei fraction: 117%
UACC62
  cleaved PARP positive nuclei fraction: 168%
WM115
  cleaved PARP positive nuclei fraction: 81.2%
WM1716
  cleaved PARP positive nuclei fraction: 236%
WM1745
  cleaved PARP positive nuclei fraction: 159%
WM3526
  cleaved PARP positive nuclei fraction: 201%
WM3619
  cleaved PARP positive nuclei fraction: 118%
WM451Lu
  cleaved PARP positive nuclei fraction: 79.3%

## COCC[n+]1c2c(n(Cc3cnccn3)c1C)C(=O)c1ccccc1C2=O + COc1cc2ncnc(Nc3ccc(Oc4ccccc4)cc3)c2cc1OC [SrcI1] (first compound 0.0004 µM, partner dose 2 µM)
MZ2-MEL
  cleaved PARP positive nuclei fraction: 159%
MeWo
  cleaved PARP positive nuclei fraction: 131%
RPMI7951
  cleaved PARP positive nuclei fraction: 48.2%
RVH-421
  cleaved PARP positive nuclei fraction: 109%
SkMel28
  cleaved PARP positive nuclei fraction: 120%
SkMel30
  cleaved PARP positive nuclei fraction: 423%
SkMel5
  cleaved PARP positive nuclei fraction: 78%
UACC257
  cleaved PARP positive nuclei fraction: 141%
UACC62
  cleaved PARP positive nuclei fraction: 150%
WM115
  cleaved PARP positive nuclei fraction: 67.9%
WM1716
  cleaved PARP positive nuclei fraction: 53.1%
WM1745
  cleaved PARP positive nuclei fraction: 113%
WM3526
  cleaved PARP positive nuclei fraction: 58%
WM3619
  cleaved PARP positive nuclei fraction: 79.4%
WM451Lu
  cleaved PARP positive nuclei fraction: 176%

## O=C(CCCCCCC(=O)Nc1ccccc1)NO [vorinostat] + O=S(=O)(c1ccccc1)N(CC(F)(F)F)c1ccc(C(O)(C(F)(F)F)C(F)(F)F)cc1 [T0901317] (first compound 0.08 µM, partner dose 1.4 µM)
MZ2-MEL
  cleaved PARP positive nuclei fraction: 46.7%
MeWo
  cleaved PARP positive nuclei fraction: 185%
RPMI7951
  cleaved PARP positive nuclei fraction: 37.4%
RVH-421
  cleaved PARP positive nuclei fraction: 83.4%
SkMel28
  cleaved PARP positive nuclei fraction: 136%
SkMel30
  cleaved PARP positive nuclei fraction: 35.6%
SkMel5
  cleaved PARP positive nuclei fraction: 38.9%
UACC257
  cleaved PARP positive nuclei fraction: 77.6%
UACC62
  cleaved PARP positive nuclei fraction: 80.4%
WM115
  cleaved PARP positive nuclei fraction: 50.4%
WM1716
  cleaved PARP positive nuclei fraction: 61%
WM1745
  cleaved PARP positive nuclei fraction: 133%
WM3526
  cleaved PARP positive nuclei fraction: 140%
WM3619
  cleaved PARP positive nuclei fraction: 119%
WM451Lu
  cleaved PARP positive nuclei fraction: 112%

## COc1cc(Nc2ncc(F)c(Nc3ccc4c(n3)NC(=O)C(C)(C)O4)n2)cc(OC)c1OC [Tamatinib] + Cc1cc([N+](=O)[O-])ccc1NS(=O)(=O)c1cc(Cl)ccc1Cl [FH535] (first compound 0.4 µM, partner dose 1 µM)
MZ2-MEL
  cleaved PARP positive nuclei fraction: 45.4%
MeWo
  cleaved PARP positive nuclei fraction: 31.3%
RPMI7951
  cleaved PARP positive nuclei fraction: 93.9%
RVH-421
  cleaved PARP positive nuclei fraction: 197%
SkMel28
  cleaved PARP positive nuclei fraction: 187%
SkMel30
  cleaved PARP positive nuclei fraction: 106%
SkMel5
  cleaved PARP positive nuclei fraction: 67.4%
UACC257
  cleaved PARP positive nuclei fraction: 318%
UACC62
  cleaved PARP positive nuclei fraction: 49.1%
WM115
  cleaved PARP positive nuclei fraction: 119%
WM1716
  cleaved PARP positive nuclei fraction: 289%
WM1745
  cleaved PARP positive nuclei fraction: 143%
WM3526
  cleaved PARP positive nuclei fraction: 151%
WM3619
  cleaved PARP positive nuclei fraction: 79.7%
WM451Lu
  cleaved PARP positive nuclei fraction: 179%

## C=CCn1c(=O)c2cnc(Nc3ccc(N4CCN(C)CC4)cc3)nc2n1-c1cccc(C(C)(C)O)n1 + COc1ccc(COc2ccc(Cc3cnc(N)nc3N)cc2OC)cc1 [GW2580] (first compound 0.02 µM, partner dose 1 µM)
MZ2-MEL
  cleaved PARP positive nuclei fraction: 115%
MeWo
  cleaved PARP positive nuclei fraction: 68.2%
RPMI7951
  cleaved PARP positive nuclei fraction: 45%
RVH-421
  cleaved PARP positive nuclei fraction: 52%
SkMel28
  cleaved PARP positive nuclei fraction: 129%
SkMel30
  cleaved PARP positive nuclei fraction: 53.2%
SkMel5
  cleaved PARP positive nuclei fraction: 285%
UACC257
  cleaved PARP positive nuclei fraction: 168%
UACC62
  cleaved PARP positive nuclei fraction: 76.6%
WM115
  cleaved PARP positive nuclei fraction: 146%
WM1716
  cleaved PARP positive nuclei fraction: 165%
WM1745
  cleaved PARP positive nuclei fraction: 111%
WM3526
  cleaved PARP positive nuclei fraction: 62.9%
WM3619
  cleaved PARP positive nuclei fraction: 122%
WM451Lu
  cleaved PARP positive nuclei fraction: 36.7%

## Cn1c(Nc2ccc(C(F)(F)F)cc2)nc2cc(Oc3ccnc(-c4ncc(C(F)(F)F)[nH]4)c3)ccc21 + c1cc(-c2cnn3cc(-c4ccc(OCCN5CCCCC5)cc4)cnc23)ccn1 [Dorsomorphin] (first compound 0.08 µM, partner dose 0.4 µM)
MZ2-MEL
  cleaved PARP positive nuclei fraction: 196%
MeWo
  cleaved PARP positive nuclei fraction: 64.6%
RPMI7951
  cleaved PARP positive nuclei fraction: 51%
RVH-421
  cleaved PARP positive nuclei fraction: 38%
SkMel28
  cleaved PARP positive nuclei fraction: 148%
SkMel30
  cleaved PARP positive nuclei fraction: 71.3%
SkMel5
  cleaved PARP positive nuclei fraction: 153%
UACC257
  cleaved PARP positive nuclei fraction: 502%
UACC62
  cleaved PARP positive nuclei fraction: 174%
WM115
  cleaved PARP positive nuclei fraction: 140%
WM1716
  cleaved PARP positive nuclei fraction: 75.7%
WM1745
  cleaved PARP positive nuclei fraction: 209%
WM3526
  cleaved PARP positive nuclei fraction: 104%
WM3619
  cleaved PARP positive nuclei fraction: 113%
WM451Lu
  cleaved PARP positive nuclei fraction: 181%

## O=C(CCCCCCC(=O)Nc1ccccc1)NO [vorinostat] + O=C(O)C(=O)Nc1sc2c(c1C(=O)O)CCNC2 [TCS401] (first compound 0.08 µM, partner dose 1.66667 µM)
MZ2-MEL
  cleaved PARP positive nuclei fraction: 112%
MeWo
  cleaved PARP positive nuclei fraction: 102%
RPMI7951
  cleaved PARP positive nuclei fraction: 98.3%
RVH-421
  cleaved PARP positive nuclei fraction: 24.2%
SkMel28
  cleaved PARP positive nuclei fraction: 147%
SkMel30
  cleaved PARP positive nuclei fraction: 87.7%
SkMel5
  cleaved PARP positive nuclei fraction: 84.2%
UACC257
  cleaved PARP positive nuclei fraction: 260%
UACC62
  cleaved PARP positive nuclei fraction: 257%
WM115
  cleaved PARP positive nuclei fraction: 142%
WM1716
  cleaved PARP positive nuclei fraction: 220%
WM1745
  cleaved PARP positive nuclei fraction: 98.3%
WM3526
  cleaved PARP positive nuclei fraction: 162%
WM3619
  cleaved PARP positive nuclei fraction: 92.9%
WM451Lu
  cleaved PARP positive nuclei fraction: 135%

## Cn1cncc1[C@@](N)(c1ccc(Cl)cc1)c1ccc2c(c1)c(-c1cccc(Cl)c1)cc(=O)n2C [tipifarnib] + Oc1nc(-c2ccc(C(F)(F)F)cc2)nc2c1CSCC2 [XAV939] (first compound 0.01 µM, partner dose 2 µM)
MZ2-MEL
  cleaved PARP positive nuclei fraction: 118%
MeWo
  cleaved PARP positive nuclei fraction: 53.9%
RPMI7951
  cleaved PARP positive nuclei fraction: 75.4%
RVH-421
  cleaved PARP positive nuclei fraction: 27.7%
SkMel28
  cleaved PARP positive nuclei fraction: 138%
SkMel30
  cleaved PARP positive nuclei fraction: 14.3%
SkMel5
  cleaved PARP positive nuclei fraction: 132%
UACC257
  cleaved PARP positive nuclei fraction: 127%
UACC62
  cleaved PARP positive nuclei fraction: 45.2%
WM115
  cleaved PARP positive nuclei fraction: 61.3%
WM1716
  cleaved PARP positive nuclei fraction: 126%
WM1745
  cleaved PARP positive nuclei fraction: 123%
WM3526
  cleaved PARP positive nuclei fraction: 175%
WM3619
  cleaved PARP positive nuclei fraction: 216%
WM451Lu
  cleaved PARP positive nuclei fraction: 76.6%
